From article PMC5575663

Columns and labels:
[1] = molecular target: BD-CpCZF1 (Chimonanthus praecox (wintersweet)); experiment: two-hybrid; Matchmaker Gold Yeast Two-Hybrid System (Clontech), GAL4 system; BD and AD constructs co-transformed into yeast strain Y2HGold; DDO/X plates for co-transformation, QDO/X/A selective medium for interaction (growth and blue colour)
[2] = molecular target: CpCZF1-nEYFP (Chimonanthus praecox (wintersweet)); experiment: split reporter; YFP BiFC; nEYFP (aa 1-174) and cEYFP (175-239) fusions co-infiltrated by Agrobacterium GV3101 (OD600 = 0.5, mixed equally) into lower epidermal cells of tobacco leaves; 36 h in the dark at 22 °C; confocal microscopy
[3] = molecular target: nEYFP-CpCZF1 (Chimonanthus praecox (wintersweet)); experiment: as above
[4] = molecular target: CpCZF1-cEYFP (Chimonanthus praecox (wintersweet)); experiment: as above
[5] = molecular target: cEYFP-CpCZF1 (Chimonanthus praecox (wintersweet)); experiment: as above

Molecule	binding [1]	binding [2]	binding [3]	binding [4]	binding [5]
AD-CpCZF2 (from UniProt A0A1U9YF98)	binds				
AtSZF1-cEYFP (protein, UniProt Q93ZS9 1-580) MCSGPKSNLCSSRTLTEIESRQKEEETMLLLEFAACDDLDSFKREVEEKGLDLDESGLWYCRRVGSKKMGLEERTPLMVAAMYGSIKVLTFIVSTGKSDVNRACGEERVTPLHCAVAGCSVNMIEVINVLLDASALVNSVDANGNQPLDVFVRVSRFVASPRRKAVELLLRGGGVGGLIDEAVEEEIKIVSKYPADASLPDINEGVYGSDEFRMYSFKVKPCSRAYSHDWTECAFVHPGENARRRDPRKYPYTCVPCPEFRKGSCPKGDSCEYAHGVFESWLHPAQYKTRLCKDETGCARKVCFFAHKREEMRPVNASTGSAVAQSPFSSLEMMPGLSPLAYSSGVSTPPVSPMANGVPSSPRNGGSWQNRVNTLTPPALQLNGGSRLKSTLSARDIDMEMEMELRLRGFGNNVEETFGSYVSSPSRNSQMGQNMNQHYPSSPVRQPPSQHGFESSAAAAVAVMKARSTAFAKRSLSFKPATQAAPQSNLSDWGSPNGKLEWGMKGEELNKMRRSVSFGIHGNNNNNAARDYRDEPDVSWVNSLVKDSTVVSERSFGMNERVRIMSWAEQMYREKEQTVV		no binding	no binding		
AtSZF1-nEYFP (protein, UniProt Q93ZS9 1-580) MCSGPKSNLCSSRTLTEIESRQKEEETMLLLEFAACDDLDSFKREVEEKGLDLDESGLWYCRRVGSKKMGLEERTPLMVAAMYGSIKVLTFIVSTGKSDVNRACGEERVTPLHCAVAGCSVNMIEVINVLLDASALVNSVDANGNQPLDVFVRVSRFVASPRRKAVELLLRGGGVGGLIDEAVEEEIKIVSKYPADASLPDINEGVYGSDEFRMYSFKVKPCSRAYSHDWTECAFVHPGENARRRDPRKYPYTCVPCPEFRKGSCPKGDSCEYAHGVFESWLHPAQYKTRLCKDETGCARKVCFFAHKREEMRPVNASTGSAVAQSPFSSLEMMPGLSPLAYSSGVSTPPVSPMANGVPSSPRNGGSWQNRVNTLTPPALQLNGGSRLKSTLSARDIDMEMEMELRLRGFGNNVEETFGSYVSSPSRNSQMGQNMNQHYPSSPVRQPPSQHGFESSAAAAVAVMKARSTAFAKRSLSFKPATQAAPQSNLSDWGSPNGKLEWGMKGEELNKMRRSVSFGIHGNNNNNAARDYRDEPDVSWVNSLVKDSTVVSERSFGMNERVRIMSWAEQMYREKEQTVV				no binding	no binding

Results, then the molecule that gave them:

binding [1]	binding [2]	binding [3]	binding [4]	binding [5]	Molecule
	no binding	no binding			cEYFP-AtSZF1 (protein, UniProt Q93ZS9 1-580) MCSGPKSNLCSSRTLTEIESRQKEEETMLLLEFAACDDLDSFKREVEEKGLDLDESGLWYCRRVGSKKMGLEERTPLMVAAMYGSIKVLTFIVSTGKSDVNRACGEERVTPLHCAVAGCSVNMIEVINVLLDASALVNSVDANGNQPLDVFVRVSRFVASPRRKAVELLLRGGGVGGLIDEAVEEEIKIVSKYPADASLPDINEGVYGSDEFRMYSFKVKPCSRAYSHDWTECAFVHPGENARRRDPRKYPYTCVPCPEFRKGSCPKGDSCEYAHGVFESWLHPAQYKTRLCKDETGCARKVCFFAHKREEMRPVNASTGSAVAQSPFSSLEMMPGLSPLAYSSGVSTPPVSPMANGVPSSPRNGGSWQNRVNTLTPPALQLNGGSRLKSTLSARDIDMEMEMELRLRGFGNNVEETFGSYVSSPSRNSQMGQNMNQHYPSSPVRQPPSQHGFESSAAAAVAVMKARSTAFAKRSLSFKPATQAAPQSNLSDWGSPNGKLEWGMKGEELNKMRRSVSFGIHGNNNNNAARDYRDEPDVSWVNSLVKDSTVVSERSFGMNERVRIMSWAEQMYREKEQTVV
			no binding	no binding	nEYFP-AtSZF1 (protein, UniProt Q93ZS9 1-580) MCSGPKSNLCSSRTLTEIESRQKEEETMLLLEFAACDDLDSFKREVEEKGLDLDESGLWYCRRVGSKKMGLEERTPLMVAAMYGSIKVLTFIVSTGKSDVNRACGEERVTPLHCAVAGCSVNMIEVINVLLDASALVNSVDANGNQPLDVFVRVSRFVASPRRKAVELLLRGGGVGGLIDEAVEEEIKIVSKYPADASLPDINEGVYGSDEFRMYSFKVKPCSRAYSHDWTECAFVHPGENARRRDPRKYPYTCVPCPEFRKGSCPKGDSCEYAHGVFESWLHPAQYKTRLCKDETGCARKVCFFAHKREEMRPVNASTGSAVAQSPFSSLEMMPGLSPLAYSSGVSTPPVSPMANGVPSSPRNGGSWQNRVNTLTPPALQLNGGSRLKSTLSARDIDMEMEMELRLRGFGNNVEETFGSYVSSPSRNSQMGQNMNQHYPSSPVRQPPSQHGFESSAAAAVAVMKARSTAFAKRSLSFKPATQAAPQSNLSDWGSPNGKLEWGMKGEELNKMRRSVSFGIHGNNNNNAARDYRDEPDVSWVNSLVKDSTVVSERSFGMNERVRIMSWAEQMYREKEQTVV

No constants are given. Whether binding was seen depends on the method and setting. For part of these data: A result given as binding can be weak or reduced; the word gives no strength. For part of these data: Binding seen in cells or lysates may run through a third protein.
